Laboratory results published in publication PMC7819943, “Rice protein-binding microarrays: a tool to detect cis-acting elements near promoter regions in rice”.
The other results are listed elsewhere or left out.

Sequences of proteins named here, by UniProt entry; tags and fusion partners are left off.
UniProt Q0JBA9, entry or part of it: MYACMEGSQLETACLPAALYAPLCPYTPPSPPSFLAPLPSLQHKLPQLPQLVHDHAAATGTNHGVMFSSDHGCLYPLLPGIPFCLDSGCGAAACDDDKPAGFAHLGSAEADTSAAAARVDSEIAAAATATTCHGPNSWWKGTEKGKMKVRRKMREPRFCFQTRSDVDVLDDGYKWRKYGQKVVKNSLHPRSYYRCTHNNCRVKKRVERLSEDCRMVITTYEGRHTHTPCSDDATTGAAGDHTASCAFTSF

Molecular target: OsWRKY34 (Oryza sativa, UniProt Q0JBA9 1-250)
Assay: protein-binding microarray (RPBM); PBS, 2% BSA, 51.3 ng/ul salmon testes DNA, 50 uM zinc acetate, 200 nM TF, 25 C, 1 h; high values mean tight binding
Details: protein: recombinant; tags: N-terminal polyhistidine and DsRed monomer fusion (pET32a); label: CyDye5-dUTP incorporated in the synthesized complementary strand; 3' TTTTT single-stranded linker to array surface; dsDNA, one strand shown
Procedure, shortened: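 In PBS with 2% BSA, salmon testes DNA and 50 µM zinc acetate, 200 nM protein was incubated on a custom Agilent array at 25 °C for 1 h and then washed off. The array had been made double-stranded by primer extension with Cy5-dUTP and blocked with 2% BSA. The proteins were transcription factors fused N-terminally to polyhistidine and DsRed, expressed in E. coli BL21-CodonPlus and purified on Ni–NTA. The binding signal is per-feature fluorescence intensity (arbitrary units) from an Axon 4000B scanner.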

Point of comparison: “CCCCTTCGAAATAAGCCACCACCGCCACTTCTCCTTGCCGCGGAGTCACCTAGTGCAG”, binding signal 8720 fluorescence intensity (a.u.). Against it:
- GACTTACCAAATTTTACGTATCTTTTCGGTCTTTACATTTCGGAGTCACCTAGTGCAG — higher, 10600 fluorescence intensity (a.u.)
- CGCATGCACGTACGTACCCGCCATTGCTGCTGCCAACCCTCGGAGTCACCTAGTGCAG — higher, 10700 fluorescence intensity (a.u.)
- AACTTGTTTCATCTATGCACTGGTACCAACACTCTTTGCACGGAGTCACCTAGTGCAG — higher, 9490 fluorescence intensity (a.u.)
- GATCCACCGCAACCTGCTGCTCACCACGCACGGCAACCTCCGGAGTCACCTAGTGCAG — higher, 9780 fluorescence intensity (a.u.)
- ACTAGTATACGTCATACACACATACACTTGGTTGCCTATTCGGAGTCACCTAGTGCAG — higher, 11500 fluorescence intensity (a.u.)
- TTTTTTTTCTCTTCCGGCAATTCCGTAACAAGTTCATTTTCGGAGTCACCTAGTGCAG — higher, 9670 fluorescence intensity (a.u.)
- AGTCTCTGTTCTCGTCTTCTTGTAGATCTGTCGATCTCTGCGGAGTCACCTAGTGCAG — higher, 9680 fluorescence intensity (a.u.)
- CTGCCTCACTCAATAATTTCAACAACCATTTGCTCGTGAACGGAGTCACCTAGTGCAG — higher, 9010 fluorescence intensity (a.u.)
- CCCCATCCACCGCCGCCGCCACAGTTCACCGCTACCCACGCGGAGTCACCTAGTGCAG — higher, 9800 fluorescence intensity (a.u.)
- ATTCTCAAATACCACTCGGGCCCACATGTCAGCCTTACTCCGGAGTCACCTAGTGCAG — lower, 8200 fluorescence intensity (a.u.)
- TTAATTTGGTTGGATTGGGAGTTTCTTGTTCTCTCTTTAGCGGAGTCACCTAGTGCAG — higher, 10700 fluorescence intensity (a.u.)
- CTGGACTGCAGAATCCTTCTAATCATGTTGGCACAACTTTCGGAGTCACCTAGTGCAG — lower, 8300 fluorescence intensity (a.u.)
- GATTCCCCAGCGCGCGAGCGAGCCCTTCCCGTCCTCGATGCGGAGTCACCTAGTGCAG — lower, 8590 fluorescence intensity (a.u.)
- CTCTAATTTGTTTTTGTTATTAGACTATATTTAATACTTTCGGAGTCACCTAGTGCAG — higher, 9030 fluorescence intensity (a.u.)
- CTCGGGTTTGGTTGGTTGCTGGCACTGCACTACTGCTCGACGGAGTCACCTAGTGCAG — lower, 8590 fluorescence intensity (a.u.)
- AATCCCACAAAACTGCACTGTTAATTTTATCACGTGTCCCCGGAGTCACCTAGTGCAG — lower, 8140 fluorescence intensity (a.u.)
- CCAGCCCAAGTCGGGAAATGACACTTCCTTTTTTGTTTTTCGGAGTCACCTAGTGCAG — lower, 8280 fluorescence intensity (a.u.)
- TTAGCAAAAACATATCCTTTCTTGCCACACTACTAAGCCACGGAGTCACCTAGTGCAG — lower, 8160 fluorescence intensity (a.u.)
- TCCTTGATTTAATGTTGTCACCATTGACCTTATCACACATCGGAGTCACCTAGTGCAG — higher, 9330 fluorescence intensity (a.u.)
- ACATATGATCAGATTAGGATATCGGATGGGTGGGCGCAAACGGAGTCACCTAGTGCAG — higher, 11500 fluorescence intensity (a.u.)
- CTCCACTAATCCTACCAATTAACGAGTCGTACTCAATAATCGGAGTCACCTAGTGCAG — lower, 8130 fluorescence intensity (a.u.)
- AGGTCTAGTATTTCTTTTGGGATTATCTTTTGCAATAGAACGGAGTCACCTAGTGCAG — higher, 9390 fluorescence intensity (a.u.)
- TTTTTCCATCACATCAACCTGTCATATACACACAATTTTTCGGAGTCACCTAGTGCAG — higher, 9770 fluorescence intensity (a.u.)
- GGAAACCTTAGCCACGGAACGCTCATGACCTCACCAAATTCGGAGTCACCTAGTGCAG — lower, 8500 fluorescence intensity (a.u.)
- ACATTTATTCCCTCCCTACTGAATACCAGTACCATATATTCGGAGTCACCTAGTGCAG — higher, 9120 fluorescence intensity (a.u.)
- TTACATTTTTTTTATCCTGGTCATGACTCGTAATTTAATCCGGAGTCACCTAGTGCAG — higher, 10300 fluorescence intensity (a.u.)
- AAGGACGGTCAAATATTTCAGTTGACCATCGGTAAAACATCGGAGTCACCTAGTGCAG — higher, 12200 fluorescence intensity (a.u.)
- AATCTTCACCGTGTTTATTACTCTCTCTGTTTCTACATAGCGGAGTCACCTAGTGCAG — lower, 8050 fluorescence intensity (a.u.)
- CGCGCCACCACCCCTCCCGCATCTTCCACCTCCGCCTCTACGGAGTCACCTAGTGCAG — higher, 11100 fluorescence intensity (a.u.)
- AAACTGTGCACCTAACATTGTGTCTTGCTGACTCCTCTCACGGAGTCACCTAGTGCAG — lower, 8580 fluorescence intensity (a.u.)
- ATCTCAGCCTTAATTTTGCCACAGCTCTGGTAAAAGCTTTCGGAGTCACCTAGTGCAG — lower, 8700 fluorescence intensity (a.u.)
- GCCTATGCCTGCTGAGTTTCTCACTCCCTAGTCGATCTCCCGGAGTCACCTAGTGCAG — lower, 8140 fluorescence intensity (a.u.)
- ACAAAGCCAGCCCAGTACACGGTACCACACACAGCTTAATCGGAGTCACCTAGTGCAG — lower, 8440 fluorescence intensity (a.u.)
- CCATCTCGCGTTCTCGCGCTCGATTCGAATCCCACCGCAACGGAGTCACCTAGTGCAG — higher, 9170 fluorescence intensity (a.u.)
- ATACTCCCTCCGTTTCAAAATGTTTGACACCGTTGACTTTCGGAGTCACCTAGTGCAG — higher, 12500 fluorescence intensity (a.u.)
- GCTTGACAAGCAACCACGTCGATCGACCGTCCGTCGTCACCGGAGTCACCTAGTGCAG — lower, 8160 fluorescence intensity (a.u.)
- CGTATTAGGGTCTAGTTGGTTTTTCTTTGAAATATAATTTCGGAGTCACCTAGTGCAG — lower, 8110 fluorescence intensity (a.u.)
- GTGGGTTTTTTTTTTTGGTTTGTTTCTTCCTCTGGCCATTCGGAGTCACCTAGTGCAG — higher, 19800 fluorescence intensity (a.u.)
- TAACATCTCTATTGGGGCATCTTCATGTGGTGAAATTTTACGGAGTCACCTAGTGCAG — higher, 10000 fluorescence intensity (a.u.)
- CTGGCTACAAATATGTAGTCCGCTGCTCTTCTCTTTTCTCCGGAGTCACCTAGTGCAG — lower, 8700 fluorescence intensity (a.u.)
- GCCTCGCCGCCTTCCACCTCTCTCTCTCTACAAATCTCTCCGGAGTCACCTAGTGCAG — higher, 9190 fluorescence intensity (a.u.)
